{"sequences": {"note": "Protein sequences, listed by entry. Tags and fused reporters are not part of them. Lines headed by an entry give the natural chain unless they say otherwise; changes in a name come on top.", "UniProt P21860": "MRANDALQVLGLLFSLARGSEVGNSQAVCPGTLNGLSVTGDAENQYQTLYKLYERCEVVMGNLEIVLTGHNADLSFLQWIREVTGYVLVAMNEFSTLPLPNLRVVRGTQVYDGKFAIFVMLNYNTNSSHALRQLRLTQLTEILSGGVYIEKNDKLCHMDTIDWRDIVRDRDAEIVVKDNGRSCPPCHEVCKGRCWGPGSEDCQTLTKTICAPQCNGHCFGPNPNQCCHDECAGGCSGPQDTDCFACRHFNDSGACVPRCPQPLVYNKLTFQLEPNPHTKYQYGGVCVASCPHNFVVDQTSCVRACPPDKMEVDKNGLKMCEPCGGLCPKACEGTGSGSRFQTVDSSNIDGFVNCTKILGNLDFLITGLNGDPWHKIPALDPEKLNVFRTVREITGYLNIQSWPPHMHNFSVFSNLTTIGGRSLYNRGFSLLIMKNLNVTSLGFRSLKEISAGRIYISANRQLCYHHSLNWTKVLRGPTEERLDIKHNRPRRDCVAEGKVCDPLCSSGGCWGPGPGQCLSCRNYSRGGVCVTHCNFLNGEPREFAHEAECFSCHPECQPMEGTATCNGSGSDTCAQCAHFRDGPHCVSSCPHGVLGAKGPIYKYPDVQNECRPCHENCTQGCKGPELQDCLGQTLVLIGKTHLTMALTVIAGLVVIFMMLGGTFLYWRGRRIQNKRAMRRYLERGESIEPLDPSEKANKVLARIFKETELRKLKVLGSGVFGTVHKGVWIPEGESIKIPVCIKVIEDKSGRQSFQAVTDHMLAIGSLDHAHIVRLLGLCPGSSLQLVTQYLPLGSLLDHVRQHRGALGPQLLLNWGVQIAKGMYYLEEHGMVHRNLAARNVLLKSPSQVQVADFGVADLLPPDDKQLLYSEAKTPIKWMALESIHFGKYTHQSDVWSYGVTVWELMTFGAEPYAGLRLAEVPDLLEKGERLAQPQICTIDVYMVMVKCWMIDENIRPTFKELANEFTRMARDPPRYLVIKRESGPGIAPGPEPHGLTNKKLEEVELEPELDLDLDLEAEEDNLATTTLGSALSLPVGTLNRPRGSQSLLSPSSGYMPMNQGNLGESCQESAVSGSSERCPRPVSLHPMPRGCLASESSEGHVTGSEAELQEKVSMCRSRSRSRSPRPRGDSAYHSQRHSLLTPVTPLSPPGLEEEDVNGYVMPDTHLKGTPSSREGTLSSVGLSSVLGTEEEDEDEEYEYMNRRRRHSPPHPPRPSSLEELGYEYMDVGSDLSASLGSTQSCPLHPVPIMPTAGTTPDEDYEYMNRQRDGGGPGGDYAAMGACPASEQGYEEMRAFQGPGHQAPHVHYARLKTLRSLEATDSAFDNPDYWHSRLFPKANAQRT"}, "source": "patent US20190194350A1", "binders": {"B1": {"name": "scFv 3-43 (scFv)", "scFv": "QVQLQQSGPGLVKPSQTLSLTCAISGDSVSSNRAAWNWIRQSPSRGLEWLGRTYYRSKWYNDYAQSLKSRITINPDTPKNQFSLQLNSVTPEDTAVYYCARDGQLGLDALDIWGQGTMVTVSSGGGGSGGGGSGGGGSQAGLTQPPAVSVAPGQTASITCGRDNIGSRSVHWYQQKPGQAPVLVVYDDSDRPAGIPERFSGSNYENTATLTISRVEAGDEADYYCQVWGITSDHVVFGGGTKLTVLG"}}, "molecular_target": "HER3-Fc fusion protein (Fc fusion protein of the extracellular domain of human HER3, limits not stated) (human) (UniProt P21860)", "test": "ELISA, immobilized human HER3 extracellular region fused to human Fc, scFv detected with anti-His-tag antibody", "note": "These are yes or no findings as the source states them, for the method shown. Some entries that bind do so weakly or less than the wild type."}
{"binder": "B1", "values": [{"measurement": "binding", "result": "binds"}]}
